Measurements taken from article PMC3834070.
No constants are given. Whether binding was seen depends on the method and setting. For part of these data: Binding calls can cover weak binding; strength is not graded here.

Tests used:
[1] = target: polygalacturonase of Fusarium verticillioides (FvPG) strain 62264 (Fusarium verticillioides); assay: SAXS; non-cross-linked PvPGIP2-FvPG solution; p(r) functions and Rg followed over time in steps of 20 hours; both purified
[2] = target: Polygalacturonase 1 of Colletotrichum lupini (CluPG1) strain SHK78813 (Colletotrichum lupini); assay: cross-linking; 1% methanol-free formaldehyde, 50 mM NaOAc pH 4.6, 28°C, 16 h, molar ratio 1:1; analysed by SDS-PAGE; both purified
[3] = target: Polygalacturonase 1 of Colletotrichum lupini (CluPG1) strain SHK78813 (Colletotrichum lupini); assay: SAXS; cross-linked CluPG1-PvPGIP2 sample concentrated to 22 μM, 25.0°C; ab initio (GA_STRUCT) and rigid body (SASREF) modelling; both purified

B1: PG-inhibiting protein 2 of Phaseolus vulgaris pv Pinto (PvPGIP2) (protein, UniProt P58822 30-342)
chain: ELCNPQDKQALLQIKKDLGNPTTLSSWLPTTDCCNRTWLGVLCDTDTQTYRVNNLDLSGLNLPKPYPIPSSLANLPYLNFLYIGGINNLVGPIPPAIAKLTQLHYLYITHTNVSGAIPDFLSQIKTLVTLDFSYNALSGTLPPSISSLPNLVGITFDGNRISGAIPDSYGSFSKLFTSMTISRNRLTGKIPPTFANLNLAFVDLSRNMLEGDASVLFGSDKNTQKIHLAKNSLAFDLGKVGLSKNLNGLDLRNNRIYGTLPQGLTQLKFLHSLNVSFNNLCGEIPQGGNLQRFDVSAYANNKCLCGSPLPACT
binding [1]: no binding
binding [2]: binds
binding [3]: binds
